Assay results reported in article PMC8931120.
Results are given in words; binding and its absence hold for the method and conditions named. In cells and extracts the contact can be indirect. Some entries that bind do so weakly or less than the wild type.

Amino acid sequences for entries named in this document (tags omitted).
UniProt Q9H1Y0: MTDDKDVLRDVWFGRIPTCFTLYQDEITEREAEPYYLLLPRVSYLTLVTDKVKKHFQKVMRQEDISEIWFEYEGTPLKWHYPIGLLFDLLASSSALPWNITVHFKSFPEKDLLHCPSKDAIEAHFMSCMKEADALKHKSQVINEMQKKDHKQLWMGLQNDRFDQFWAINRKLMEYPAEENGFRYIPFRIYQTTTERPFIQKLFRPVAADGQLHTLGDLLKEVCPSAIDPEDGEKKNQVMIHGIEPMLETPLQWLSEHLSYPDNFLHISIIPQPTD
UniProt Q676U5: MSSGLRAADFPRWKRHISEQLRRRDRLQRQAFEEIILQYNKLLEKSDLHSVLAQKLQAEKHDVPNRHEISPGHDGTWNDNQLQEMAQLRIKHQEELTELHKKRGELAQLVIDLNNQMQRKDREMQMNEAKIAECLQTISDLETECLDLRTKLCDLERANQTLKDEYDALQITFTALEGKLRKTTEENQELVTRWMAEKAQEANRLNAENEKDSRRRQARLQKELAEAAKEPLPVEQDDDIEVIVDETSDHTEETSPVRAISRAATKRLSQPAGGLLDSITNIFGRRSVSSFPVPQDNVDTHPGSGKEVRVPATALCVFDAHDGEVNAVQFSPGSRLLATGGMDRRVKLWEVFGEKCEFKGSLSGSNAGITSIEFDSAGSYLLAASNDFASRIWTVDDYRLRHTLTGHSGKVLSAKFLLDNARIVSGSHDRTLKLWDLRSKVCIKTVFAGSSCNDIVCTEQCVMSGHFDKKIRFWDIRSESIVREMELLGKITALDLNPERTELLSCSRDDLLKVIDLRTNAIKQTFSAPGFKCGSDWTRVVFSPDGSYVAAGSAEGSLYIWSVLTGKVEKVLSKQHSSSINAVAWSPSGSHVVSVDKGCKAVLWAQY
UniProt O94817: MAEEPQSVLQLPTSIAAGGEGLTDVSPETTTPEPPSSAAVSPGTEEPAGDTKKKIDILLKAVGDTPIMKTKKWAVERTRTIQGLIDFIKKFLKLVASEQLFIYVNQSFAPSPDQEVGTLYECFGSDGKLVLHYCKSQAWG
UniProt A5YKK6: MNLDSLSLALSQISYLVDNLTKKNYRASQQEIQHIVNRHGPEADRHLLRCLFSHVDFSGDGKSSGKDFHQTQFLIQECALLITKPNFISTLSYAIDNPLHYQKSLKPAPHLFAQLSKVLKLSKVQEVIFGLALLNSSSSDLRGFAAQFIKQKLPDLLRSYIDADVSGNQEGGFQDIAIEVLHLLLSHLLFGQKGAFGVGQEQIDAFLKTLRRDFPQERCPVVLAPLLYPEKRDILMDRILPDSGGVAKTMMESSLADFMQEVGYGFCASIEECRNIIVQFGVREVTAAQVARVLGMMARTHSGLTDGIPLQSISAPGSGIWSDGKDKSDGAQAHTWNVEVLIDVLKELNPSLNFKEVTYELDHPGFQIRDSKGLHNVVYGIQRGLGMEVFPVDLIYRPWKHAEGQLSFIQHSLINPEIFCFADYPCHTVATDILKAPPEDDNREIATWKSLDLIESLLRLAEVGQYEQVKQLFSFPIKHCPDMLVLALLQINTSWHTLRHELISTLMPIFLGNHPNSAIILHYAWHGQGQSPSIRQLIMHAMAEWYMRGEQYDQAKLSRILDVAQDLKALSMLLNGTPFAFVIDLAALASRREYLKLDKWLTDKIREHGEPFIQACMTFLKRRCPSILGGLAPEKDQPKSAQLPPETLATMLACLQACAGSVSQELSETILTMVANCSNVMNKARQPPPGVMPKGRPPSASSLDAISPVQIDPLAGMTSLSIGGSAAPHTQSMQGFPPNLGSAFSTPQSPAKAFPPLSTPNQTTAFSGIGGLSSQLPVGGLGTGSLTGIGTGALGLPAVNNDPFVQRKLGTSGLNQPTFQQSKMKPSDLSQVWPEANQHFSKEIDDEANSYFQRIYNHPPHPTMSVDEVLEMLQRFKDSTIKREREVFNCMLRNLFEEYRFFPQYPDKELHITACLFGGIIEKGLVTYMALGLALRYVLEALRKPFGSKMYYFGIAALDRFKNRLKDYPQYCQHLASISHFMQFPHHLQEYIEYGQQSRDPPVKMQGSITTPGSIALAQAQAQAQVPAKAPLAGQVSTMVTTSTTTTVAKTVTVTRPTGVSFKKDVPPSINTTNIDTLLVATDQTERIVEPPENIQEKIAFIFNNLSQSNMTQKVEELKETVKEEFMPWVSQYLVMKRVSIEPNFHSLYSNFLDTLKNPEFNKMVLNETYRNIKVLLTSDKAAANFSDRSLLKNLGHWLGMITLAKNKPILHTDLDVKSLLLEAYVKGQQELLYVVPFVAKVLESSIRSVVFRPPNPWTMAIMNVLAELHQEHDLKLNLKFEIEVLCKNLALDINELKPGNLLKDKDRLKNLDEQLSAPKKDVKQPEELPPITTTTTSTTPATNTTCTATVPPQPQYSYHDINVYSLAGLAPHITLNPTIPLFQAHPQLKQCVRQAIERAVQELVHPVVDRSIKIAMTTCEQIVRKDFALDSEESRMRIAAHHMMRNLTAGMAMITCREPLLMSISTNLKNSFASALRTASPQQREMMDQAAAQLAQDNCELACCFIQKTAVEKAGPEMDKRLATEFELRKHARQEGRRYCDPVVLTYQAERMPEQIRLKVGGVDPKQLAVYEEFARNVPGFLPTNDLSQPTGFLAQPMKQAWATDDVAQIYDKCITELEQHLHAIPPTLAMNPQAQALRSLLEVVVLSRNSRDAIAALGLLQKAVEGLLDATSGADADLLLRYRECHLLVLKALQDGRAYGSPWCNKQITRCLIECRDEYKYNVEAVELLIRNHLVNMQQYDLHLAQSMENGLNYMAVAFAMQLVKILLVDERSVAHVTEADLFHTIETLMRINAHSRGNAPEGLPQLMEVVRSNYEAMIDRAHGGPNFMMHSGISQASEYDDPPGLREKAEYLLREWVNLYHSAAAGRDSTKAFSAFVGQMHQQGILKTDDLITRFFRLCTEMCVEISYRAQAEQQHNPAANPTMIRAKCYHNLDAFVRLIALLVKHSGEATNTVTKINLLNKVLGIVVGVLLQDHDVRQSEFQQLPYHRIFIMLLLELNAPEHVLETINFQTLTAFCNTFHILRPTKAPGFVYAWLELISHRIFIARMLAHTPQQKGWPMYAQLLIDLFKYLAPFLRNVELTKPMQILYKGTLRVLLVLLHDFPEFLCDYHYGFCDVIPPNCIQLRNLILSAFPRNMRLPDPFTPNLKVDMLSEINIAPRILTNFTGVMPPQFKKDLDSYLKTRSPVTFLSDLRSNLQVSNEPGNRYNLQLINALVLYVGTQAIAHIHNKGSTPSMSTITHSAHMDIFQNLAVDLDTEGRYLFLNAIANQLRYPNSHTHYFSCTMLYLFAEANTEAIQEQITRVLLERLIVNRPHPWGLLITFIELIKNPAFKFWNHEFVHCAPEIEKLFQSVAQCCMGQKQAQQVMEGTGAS
UniProt Q9UIV1: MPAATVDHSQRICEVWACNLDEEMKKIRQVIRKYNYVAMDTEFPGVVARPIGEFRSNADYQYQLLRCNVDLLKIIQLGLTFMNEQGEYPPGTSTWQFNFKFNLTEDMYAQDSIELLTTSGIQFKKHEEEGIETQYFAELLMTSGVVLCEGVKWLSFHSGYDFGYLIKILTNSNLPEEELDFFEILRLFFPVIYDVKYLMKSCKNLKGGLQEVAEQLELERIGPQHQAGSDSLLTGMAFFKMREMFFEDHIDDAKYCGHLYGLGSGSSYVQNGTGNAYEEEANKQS

Assays:
Experiment in all cases: co-IP; HEK293T transfected with FLAG, FLAG-ATG5, FLAG-ATG12 or FLAG-ATG16L1, treated with Rapa + CQ for 12 h; IP of total cell extracts with anti-FLAG antibody; western blotting of endogenous CNOT1 and CNOT7
[1] = target: FLAG-ATG5 (UniProt Q9H1Y0)
[2] = target: FLAG-ATG16L1 (UniProt Q676U5)
[3] = target: FLAG-ATG12 (UniProt O94817)

Measured: binding

CNOT1, the largest component of the CCR4-NOT deadenylase complex (from UniProt A5YKK6 1-2376)
binds: all assays above

CNOT7, deadenylase component of the CCR4-NOT complex (from UniProt Q9UIV1 1-285)
binds: all assays above
